No constants are given. Whether binding was seen depends on the method and setting. Binding seen in cells or lysates may run through a third protein. Binding calls can cover weak binding; strength is not graded here.

By UniProt entry, the sequences of proteins in these tests, tags left out. Where a name states a change or a piece, a line headed by the entry shows the natural chain unless it says otherwise.
UniProt Q10NC1: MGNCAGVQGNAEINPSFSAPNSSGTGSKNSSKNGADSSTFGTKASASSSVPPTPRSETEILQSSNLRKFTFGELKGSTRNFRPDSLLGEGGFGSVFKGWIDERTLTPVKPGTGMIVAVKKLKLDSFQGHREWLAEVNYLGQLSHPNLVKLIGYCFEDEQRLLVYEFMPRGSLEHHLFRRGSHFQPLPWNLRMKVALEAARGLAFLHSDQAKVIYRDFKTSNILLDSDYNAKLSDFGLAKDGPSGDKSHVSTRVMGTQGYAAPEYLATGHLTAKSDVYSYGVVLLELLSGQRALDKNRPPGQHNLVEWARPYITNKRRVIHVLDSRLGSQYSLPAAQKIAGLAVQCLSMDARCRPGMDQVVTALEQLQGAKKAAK

One assay deals with OsRLCK107-YN (rice) (UniProt Q10NC1). As to the kind of experiment: split reporter; BiFC: OsRLCKs-YN and OsCERK1-YC co-expressed in rice protoplasts; reconstituted YFP fluorescence seen by confocal microscope.
Assay [1] concerns the target OsRLCK107 with a C-terminal 3 × FLAG epitope tag (rice). Nature of the assay: co-IP; protoplasts expressing OsRLCK107-3xFLAG treated with 150 μg/mL chitin, PGN or sterile water (mock) for 10 min; immunoprecipitation with anti-FLAG GEL (Sigma); OsCERK1 detected by OsCERK1 antibody; WT protoplasts as negative control.

B1: OsCERK1-YC (receptor, UniProt A0A0P0XII1 19-624)
chain: AGTVTEAAGDGCSAGCDLALASFYVTPNQNVTNMADLFGIGAANYRSLAPYNPNIPNLDFINVGGRVNVYFTCGCRSLPGSPGATYLAGAFPFQMSRGQIYTSVAANYNNLTTAEWLQATNSYPANNIPDTAVINATVNCSCGDASISPDYGLFLTYPLRAEDTLASVAATYGLSSQLDVVRRYNPGMESATGSGIVYIPVKDPNGSYLPLKSPGKGASAGAIAGGVVAGVVVLAAIFLYIIFYRRRKAKQATLLQSSEDSTQLGTISMDKVTPSTIVGPSPVAGITVDKSVEFSYEELSNATQGFSIGNKIGQGGFGAVYYAELRGEKAAIKKMDMQATHEFLAELKVLTHVHHLNLVRLIGYCIESSLFLVYEFIENGNLSQHLRGMGYEPLSWAARIQIALDSARGLEYIHEHTVPVYIHRDIKSANILIDKNYRAKVADFGLTKLTEVGGTSMPTGTRVVGTFGYMPPEYARYGDVSPKVDVYAFGVVLYELISAKEAIVRSTESSSDSKGLVYLFEEALNSPDPKEGLRTLIDPKLGEDYPIDSILKLTQLAKVCTQEDPKLRPSMRSVVVALMTLSSTSEFWDMNNLYENQGLVNLMSGR
In the case of B1, the binding entry with OsRLCK107-YN (rice) is listed as “binds”.

B2: OsCERK1 (receptor, UniProt A0A0P0XII1 19-624)
chain: B1 chain
Regarding B2, the binding result in assay [1] was “binds”.

Values taken from paper PMC5318303.
